# “And” between values parts separate entries of the source, which are not always exact repeats. Equal entries are not always repeated. The campaign covered roughly 580,000 compounds. About 6,100 (1.1%) were called active. Inconclusive means that the source gave no clear call. Such entries were picked first, then a sample of the others. Calls come from the whole dose curve; as a rule, active = well fitted inhibition curve with a large enough effect; inconclusive = small, poorly fitted or top-dose-only effect, or another doubt; inactive = no such curve, though single readings can be large or run the other way. Potencies beside an inconclusive call are fits to weak or partial responses and may not hold up.
# The chains behind the UniProt entries cited, without tags or fusion partners. Where a name states a change or a piece, a line headed by the entry shows the natural chain unless it says otherwise.
# UniProt P18054: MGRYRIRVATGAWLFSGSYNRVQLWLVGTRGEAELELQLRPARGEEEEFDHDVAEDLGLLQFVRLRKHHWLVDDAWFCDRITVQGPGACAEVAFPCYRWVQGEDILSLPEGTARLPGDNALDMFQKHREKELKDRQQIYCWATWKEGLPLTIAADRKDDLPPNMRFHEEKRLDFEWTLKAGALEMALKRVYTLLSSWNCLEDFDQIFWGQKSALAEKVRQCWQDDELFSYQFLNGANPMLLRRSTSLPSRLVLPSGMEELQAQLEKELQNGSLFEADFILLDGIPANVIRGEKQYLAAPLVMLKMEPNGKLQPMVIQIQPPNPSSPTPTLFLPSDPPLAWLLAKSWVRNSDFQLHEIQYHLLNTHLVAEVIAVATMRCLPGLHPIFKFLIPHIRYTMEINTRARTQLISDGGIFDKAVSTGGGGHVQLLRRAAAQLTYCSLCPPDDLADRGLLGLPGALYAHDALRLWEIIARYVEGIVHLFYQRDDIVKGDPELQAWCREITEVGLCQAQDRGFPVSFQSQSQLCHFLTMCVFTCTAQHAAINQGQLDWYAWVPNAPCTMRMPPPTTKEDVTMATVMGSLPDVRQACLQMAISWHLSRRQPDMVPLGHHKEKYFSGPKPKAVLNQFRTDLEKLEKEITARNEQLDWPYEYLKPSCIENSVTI
# Target: Polyunsaturated fatty acid lipoxygenase ALOX12 (Homo sapiens) (UniProt P18054)
# Assay: Primary qHTS assay for inhibitors of human arachidonate 12S-lipoxygenase (ALOX12): Round 2
# Details: purified 12hLO, xylenol orange hydroperoxide absorbance; activity change, negative = inhibition: at 108 µM (top of the series) unless noted
# In short: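 Purified human 12hLO at 150 nM in 25 mM Hepes, 0.01% Triton X-100, pH 7.0, preincubated 15 min at room temperature with compound. Reaction started with 40 uM arachidonic acid, 30 min at room temperature. Hydroperoxide measured by Fe-xylenol orange, 573/405 nm absorbance ratio.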
# % is set by controls: 0 for no effect and ±100 for the full control effect; potency is the fitted concentration of half-maximal effect.
Compound,"activity change, negative = inhibition",Potency
O=C(NC1CCCCCC1)c1cc(-c2ccccn2)nc2c(Cl)cccc12,inactive: -18.9%,–
Cn1cc(CC(=O)NCc2cn3ccccc3n2)c2ccccc21,inactive: 21.3%,–
O=S(=O)(NC[C@H]1Cn2c(-c3ccc(F)cc3)cnc2CO1)c1ccc(Cl)cc1,–,active: 50.1 µM
CC(C)(CCO)NC(=S)NC1CC2C=CC1C2 (configuration not stated),–,"inconclusive: 126 µM [inhibitor, partial curve, poor fit]"
N[C@H](Cn1ccc(=O)n(Cc2ccccc2C(=O)O)c1=O)C(=O)O,–,"inconclusive: 5.01 µM [inhibitor, full curve, poor fit]"
CC1(C(=O)NCc2ccccn2)C=CCN1C(=O)c1ccccc1 (configuration not stated),–,"inconclusive: 35.5 µM [inhibitor, partial curve]"
O=C(OC1CCOC1=O)c1cccc(S(=O)(=O)Nc2cccc(Cl)c2)c1 (configuration not stated),–,"inconclusive: 141 µM [inhibitor, partial curve, poor fit]"
COc1ccccc1NC(=O)Nc1nc(C(N)Cc2ccc(Cl)cc2)cs1 (configuration not stated),–,"inconclusive: 100 µM [inhibitor, partial curve, poor fit]"
O=C(O)C[C@@H]1CCN(C(=O)Cc2ccccc2)C[C@@H]1CCN1C[C@@H]2C[C@H](C1)c1cccc(=O)n1C2,–,"inconclusive: 14.1 µM [inhibitor, full curve, poor fit]"
CC(=O)O[C@@H]1[C@H](Oc2c(O)c(C)c3c4c2[C@H](C)CC[C@H]4[C@H](C)C[C@@H]3C=C(C)C)O[C@@H](C)[C@@H](O)[C@H]1O,–,"inconclusive: 31.6 µM [inhibitor, partial curve, poor fit]"
O=C(NC1CCC(CC2CCC(NC(=O)C(Cl)Cl)CC2)CC1)C(Cl)Cl (configuration not stated),–,"inconclusive: 44.7 µM [inhibitor, partial curve, poor fit]"
CCn1nnnc1SCC(=O)Nc1ccc(N(C)C)cc1,–,"inconclusive: 112 µM [inhibitor, partial curve, poor fit]"
Cc1c(C(=O)Nc2nc3ccccc3[nH]2)oc2ccc(Br)cc12,inactive: -0.998%,–
CC(C)C[C@H]1CN([C@@H](CC(C)C)CN2CCC[C@@H]2CN2C(=S)NC[C@@H]2Cc2ccc(O)cc2)C(=S)N1CCc1ccccc1,–,"inconclusive: 44.7 µM [inhibitor, partial curve, poor fit]"
COC(=O)[C@@H]1Cc2c([nH]c3ccccc23)[C@H]2C[C@@H](NCCCn3ccnc3)C[C@@H](c3ccc(Cl)c(F)c3)N21,inactive: 102%,–
Cc1noc(C)c1C(=O)Nc1sc2c(c1C(N)=O)CCC2,–,"inconclusive: 44.7 µM [inhibitor, partial curve, poor fit]"
Oc1ccc(-c2ccccc2)cc1CN1CCCCCC1,inactive: 45.7%,–
N#CC(C#N)=c1[nH]c2ccccc2/c1=C\c1ccccc1,–,"inconclusive: 25.1 µM [inhibitor, partial curve, poor fit]"
COC1CCN(C(=O)C2(C)CN(Cc3ccccc3)Cc3ccc(Nc4ccccc4)nc32)CC1 (configuration not stated),–,"inconclusive: 112 µM [inhibitor, partial curve, poor fit]"
CCCN1CCN(c2nnc(-n3cccc3CN3CCN(Cc4ccccc4)CC3)s2)CC1,inactive: 41.7%,–
CCS(=O)(=O)CC(=O)O,–,"inconclusive: 39.8 µM [inhibitor, partial curve, poor fit]"

# In another format: 16 of the compounds above.
Compound	activity change, negative = inhibition	Potency
O=C(NC1CCCCCC1)c1cc(-c2ccccn2)nc2c(Cl)cccc12	inactive: -18.9%	–
Cn1cc(CC(=O)NCc2cn3ccccc3n2)c2ccccc21	inactive: 21.3%	–
O=S(=O)(NC[C@H]1Cn2c(-c3ccc(F)cc3)cnc2CO1)c1ccc(Cl)cc1	–	active: 50.1 µM
CC(C)(CCO)NC(=S)NC1CC2C=CC1C2 (configuration not stated)	–	inconclusive: 126 µM [inhibitor, partial curve, poor fit]
N[C@H](Cn1ccc(=O)n(Cc2ccccc2C(=O)O)c1=O)C(=O)O	–	inconclusive: 5.01 µM [inhibitor, full curve, poor fit]
CC1(C(=O)NCc2ccccn2)C=CCN1C(=O)c1ccccc1 (configuration not stated)	–	inconclusive: 35.5 µM [inhibitor, partial curve]
COc1ccccc1NC(=O)Nc1nc(C(N)Cc2ccc(Cl)cc2)cs1 (configuration not stated)	–	inconclusive: 100 µM [inhibitor, partial curve, poor fit]
O=C(O)C[C@@H]1CCN(C(=O)Cc2ccccc2)C[C@@H]1CCN1C[C@@H]2C[C@H](C1)c1cccc(=O)n1C2	–	inconclusive: 14.1 µM [inhibitor, full curve, poor fit]
CCn1nnnc1SCC(=O)Nc1ccc(N(C)C)cc1	–	inconclusive: 112 µM [inhibitor, partial curve, poor fit]
Cc1c(C(=O)Nc2nc3ccccc3[nH]2)oc2ccc(Br)cc12	inactive: -0.998%	–
CC(C)C[C@H]1CN([C@@H](CC(C)C)CN2CCC[C@@H]2CN2C(=S)NC[C@@H]2Cc2ccc(O)cc2)C(=S)N1CCc1ccccc1	–	inconclusive: 44.7 µM [inhibitor, partial curve, poor fit]
COC(=O)[C@@H]1Cc2c([nH]c3ccccc23)[C@H]2C[C@@H](NCCCn3ccnc3)C[C@@H](c3ccc(Cl)c(F)c3)N21	inactive: 102%	–
Cc1noc(C)c1C(=O)Nc1sc2c(c1C(N)=O)CCC2	–	inconclusive: 44.7 µM [inhibitor, partial curve, poor fit]
N#CC(C#N)=c1[nH]c2ccccc2/c1=C\c1ccccc1	–	inconclusive: 25.1 µM [inhibitor, partial curve, poor fit]
COC1CCN(C(=O)C2(C)CN(Cc3ccccc3)Cc3ccc(Nc4ccccc4)nc32)CC1 (configuration not stated)	–	inconclusive: 112 µM [inhibitor, partial curve, poor fit]
CCCN1CCN(c2nnc(-n3cccc3CN3CCN(Cc4ccccc4)CC3)s2)CC1	inactive: 41.7%	–

# Remaining list, next part:

Compound,"activity change, negative = inhibition",Potency
CCCCCCC12C(=Cc3cc4c(cc31)OCCO4)c1cc(OC)c(OC)cc1C(CC(=O)OC)N2C(=O)OC (configuration not stated),inactive: -23.1%,–
CCc1ccccc1NS(=O)(=O)c1ccc(C(F)(F)F)cc1,–,"inconclusive: 39.8 µM [inhibitor, partial curve, poor fit]"
O=C(O)CCC(=O)N1C[C@@H]2OCC(=O)N(Cc3ccccc3)[C@@H]2C1,–,"inconclusive: 44.7 µM [inhibitor, full curve]"
O=c1[nH]c(C2CCCN(Cc3cccc(-c4cccs4)c3)C2)nc2ccc(F)cc12 (configuration not stated),–,"inconclusive: 25.1 µM [inhibitor, partial curve] and inconclusive: 35.5 µM [inhibitor, partial curve]"
CN(/C=C/C(=O)C(F)(F)F)c1ccccc1C(=O)O,–,"inconclusive: 39.8 µM [inhibitor, partial curve, poor fit]"
O=C(Nc1cccc([N+](=O)[O-])c1)Nc1cccs1,–,"inconclusive: 50.1 µM [inhibitor, single point]"
COc1ccc(OC)c(-c2nnc3n2N=C(c2ccc(OC)c(OC)c2)CS3)c1,inactive: -7.72%,–
CC(/C=N/NC(=O)NC1CCCCC1)=C\c1ccccc1,–,"inconclusive: 4.47 µM [inhibitor, full curve, poor fit]"
CCOc1cc(C=C2C(=O)c3ccccc3C2=O)ccc1OCC(=O)Nc1ccc(C)cc1,inactive: 6.05%,–
COc1ccc(CC(=O)OCCN(C)C)cc1,–,"inconclusive: 14.1 µM [inhibitor, partial curve, poor fit]"
CC(C)(C)c1ccc(S(=O)(=O)c2cnc(SCC(=O)Nc3ccc4c(c3)OCCO4)[nH]c2=O)cc1,–,"inconclusive: 126 µM [inhibitor, single point]"
COc1ccc(-n2nnc3c(N4CCN(C(=O)Cc5cccs5)CC4)ncnc32)cc1,inactive: 21.7%,–
CCCCOc1ccc(C(=O)N2CCC[C@H]2c2nc(-c3ccc(C)cc3)no2)cc1,–,"inconclusive: 11.2 µM [inhibitor, full curve]"
O=C(CSCc1c(Cl)cccc1Cl)NCc1ccc2c(c1)OCO2,–,"inconclusive: 31.6 µM [inhibitor, partial curve, poor fit]"
CCOc1cccc(C2CC(=O)NC3=C2C(=O)CC(C)(C)C3)c1 (configuration not stated),–,"inconclusive: 35.5 µM [inhibitor, partial curve, poor fit]"
CCCC(=O)N1CCC1(C)C(=O)NS(=O)(=O)c1ccc(C#N)cc1 (configuration not stated),–,"inconclusive: 35.5 µM [inhibitor, partial curve, poor fit]"
Brc1ccc(-c2ccccc2)cc1,inactive: 2.5%,–
Cc1ccccc1-c1ncc2c(n1)OCCN(c1ccccc1)C2=O,–,"inconclusive: 56.2 µM [inhibitor, full curve, poor fit]"
Cc1ccc(/C(C#N)=C\c2cc(C)n(C)c2C)cc1,–,"inconclusive: 20 µM [inhibitor, partial curve, poor fit]"
Cc1ccc(Cc2c(C)[nH]c(=S)[nH]c2=O)cc1,inactive: 0%,–
Cc1ccc(-c2nnc(Nc3ccc4c(c3)OCO4)c3ccccc23)cc1S(=O)(=O)NCCO,inactive: 8.28%,–

Compound,"activity change, negative = inhibition",Potency
Cc1cc(C(=O)OC(C)C(=O)Nc2ccccc2F)c(C)o1 (configuration not stated),–,"inconclusive: 31.6 µM [inhibitor, single point]"
CC1CCN(S(=O)(=O)c2ccc(NC(=O)Cc3cccs3)cc2)CC1,–,"inconclusive: 17.8 µM [inhibitor, partial curve]"
COC(=O)c1ccccc1N/C=C/C(=O)c1ccc(Br)cc1,inactive: 1.35%,–
Cc1nnc2c3ccccc3nc(Nc3ccccc3C(=O)O)n12,–,"inconclusive: 35.5 µM [inhibitor, partial curve, poor fit]"
O=C(Cc1ccccn1)N1CCCC(c2nn(-c3cccc(Cl)c3)c(=O)[nH]2)C1 (configuration not stated),–,"inconclusive: 14.1 µM [inhibitor, full curve]"
COc1ccc(CNC(=O)COC(=O)c2cc(Cl)c[nH]2)cc1,–,"inconclusive: 39.8 µM [inhibitor, partial curve, poor fit]"
COc1ccc(CNC(=O)c2csc(Cc3ccc(OC)cc3)n2)cc1,–,"inconclusive: 89.1 µM [inhibitor, partial curve, poor fit]"
O=C(NCc1ccccc1-n1cncn1)C12CNCC1CNC2 (configuration not stated),–,"inconclusive: 10 µM [inhibitor, partial curve]"
O=C1NCCCCCCN(Cc2ccncc2)[C@@H]2CN(S(=O)(=O)c3ccccc3)CC[C@@H]12,inactive: 104%,–
CC(C)NC(=O)N[C@H]1C[C@@H](c2nc(-c3ccc4c(c3)OCO4)no2)N(C)C1,–,active: 22.4 µM
COc1ccc(N2C[C@H](CSC)[C@@H](CC(=O)Nc3ccc(Br)cc3)C2=O)cc1,–,"inconclusive: 100 µM [inhibitor, single point]"
Cc1ccc(S(=O)(=O)N2CCN(c3ccnc4cc(Cl)ccc34)CC2)cc1,–,"inconclusive: 50.1 µM [inhibitor, partial curve, poor fit]"
O=C(COC(=O)c1cc(-c2ccccc2Cl)nc2ccccc12)Nc1ncc(C(F)(F)F)cc1Cl,–,"inconclusive: 50.1 µM [inhibitor, single point]"
C/C(=N\NS(=O)(=O)c1ccc([N+](=O)[O-])cc1)c1ccc2c(c1)OCO2,–,"inconclusive: 44.7 µM [inhibitor, partial curve, poor fit]"
CC(=O)N1CC2(CCCN(Cc3ccc(Cl)cc3)C2)Cc2ccccc21 (configuration not stated),–,"inconclusive: 56.2 µM [inhibitor, partial curve, poor fit]"
COc1ccc(C(=O)Oc2ccc3c(=O)c(-c4ccccc4OC)c(C)oc3c2)cc1,–,"inconclusive: 4.47 µM [inhibitor, full curve, poor fit]"
O=C1NCc2ccccc2CC12CCN(Cc1cccc3ccccc13)C2 (configuration not stated),–,"inconclusive: 44.7 µM [inhibitor, partial curve]"
COc1ccc(C(=O)Oc2cc(C(=S)N3CCOCC3)ccc2OC)cc1,–,"inconclusive: 126 µM [inhibitor, partial curve, poor fit]"
COc1ccccc1C1C(C(C)=O)=C(O)C(=O)N1CCc1ccccc1 (configuration not stated),–,"inconclusive: 31.6 µM [inhibitor, partial curve, poor fit]"
COc1ccc(N2CCC(CNC(=S)Nc3cccc(OC)c3)C2)cc1 (configuration not stated),–,"inconclusive: 56.2 µM [inhibitor, partial curve, poor fit]"
